# Results: paper PMC7795679
# The chains behind the UniProt entries cited, without tags or fusion partners.
# UniProt P42866: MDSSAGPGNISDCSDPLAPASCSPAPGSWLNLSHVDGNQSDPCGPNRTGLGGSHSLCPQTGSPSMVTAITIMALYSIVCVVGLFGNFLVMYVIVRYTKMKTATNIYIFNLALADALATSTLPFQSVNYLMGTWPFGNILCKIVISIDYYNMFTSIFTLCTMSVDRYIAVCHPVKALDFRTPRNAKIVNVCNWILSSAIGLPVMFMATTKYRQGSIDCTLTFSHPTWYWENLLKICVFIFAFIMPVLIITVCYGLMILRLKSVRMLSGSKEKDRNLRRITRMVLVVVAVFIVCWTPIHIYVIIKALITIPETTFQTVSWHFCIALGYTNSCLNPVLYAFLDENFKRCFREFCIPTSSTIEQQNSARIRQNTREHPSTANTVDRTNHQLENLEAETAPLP
# UniProt P32300: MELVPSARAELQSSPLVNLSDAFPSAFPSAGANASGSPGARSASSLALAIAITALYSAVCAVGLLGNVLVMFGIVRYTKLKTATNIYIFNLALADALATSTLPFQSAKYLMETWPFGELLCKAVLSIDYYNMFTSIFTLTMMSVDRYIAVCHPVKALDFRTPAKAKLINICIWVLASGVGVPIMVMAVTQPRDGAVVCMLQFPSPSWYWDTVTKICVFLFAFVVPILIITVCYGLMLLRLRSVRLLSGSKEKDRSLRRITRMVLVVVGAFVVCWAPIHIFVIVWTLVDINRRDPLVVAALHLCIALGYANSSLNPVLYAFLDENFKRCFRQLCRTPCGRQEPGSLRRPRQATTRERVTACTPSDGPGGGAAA
# These are yes or no findings as the source states them, for the method shown. Binding seen in cells or lysates may run through a third protein. Some results given as binding are weak or reduced against the parent protein; the word gives no strength.
# How the values were obtained:
# [1] = target: mu-opioid receptor (MOR) (mouse (endogenous in mouse nervous tissue)) (UniProt P42866); test: co-IP; DRG of mice killed 5 min after intraplantar 0.5% formalin; solubilised membranes, immunoprecipitation and Western blot
# [2] = target: mu-opioid receptor (MOR) (mouse (endogenous in mouse nervous tissue)) (UniProt P42866); test: co-IP; solubilised (1% Nonidet P-40) synaptosomal P2 fractions of mouse cortex, PAG, pons-medulla, spinal cord and DRG; biotinylated IgGs against MOR, DOR or NR1 with streptavidin agarose, 4 °C overnight; Western blot; also after icv NMDA, icv or ip morphine, intraplantar formalin, CCI, and in HINT1-/- and σ1R-/- mice
# [3] = target: delta-opioid receptor (DOR) (mouse (endogenous in mouse nervous tissue)) (UniProt P32300); test: as above
binding [2],binding [3],Substance,binding [1]
binds,–,NR1 subunit of the glutamate N-methyl-D-aspartate receptor (NMDAR) (from UniProt P35438-1 19-938),binds weakly
–,binds,Transient receptor potential ankyrin member 1 (TRPA1) channel monomer (from UniProt Q8BLA8 1-1125),–
